# Primary screen of a compound library

Source: ChEMBL document CHEMBL3988442, “University of Dundee, Small-Polar-MMV Screening Library” (2021).

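Phenotypic screen: M. tuberculosis growth, glucose 7H9 medium, 3 days; the read-out is not stated. Tested at 500 µM. Higher reads as more growth inhibition (inferred: compounds with an IC50 in retests scored well above the rest). Of about 18,000 compounds tested this way, about 1,400 (7.9%) reached 50% or more in at least one test.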

Results are given as percent effect. The controls that fix the scale are not given in the record; negative values are as filed. This is an unselected part of the compounds tested.

- COCCCNCc1ccc2c(c1)n(C)c(=O)n2C : 4.869%
- CC(C(=O)N1CCCCCC1)N1CCNCC1 (stereo not given) : -3.111%
- CCC(N)C(=O)N1CCN(C(C)C)CC1 (stereo not given) : 0.4898%
- O=C1CSC2(CCS(=O)(=O)C2)N1c1ccccc1 (stereo not given) : -11.75%
- CCCNC(=O)C(C)NS(=O)(=O)c1ccccc1 (stereo not given) : 5.953%
- COC(=O)c1ccoc1COc1ccc(C)cn1 : 9.003%
- CCc1nc(C)ccc1OCC(=O)N1CCOCC1 : 1.99%
- Cc1cc(NC(=O)CCN2CCn3ccnc3C2)no1 : 13.77%
- C[C@H](N)c1ccc(-n2cccn2)c(F)c1 : 27.35%
- COC(=O)c1ccc2c(c1)CCCCC2=O : -11.42%
- Cc1csc(-n2cccc2)n1 : 7.018%
- Cc1c(C#N)nn(-c2cccnc2)c1N : -0.2495%
- Cc1cc(C)n(C2CNC2)n1 : -6.521%
- CCn1nccc1CN1CCOCC2(CCOCC2)C1 : 15.08%
- COc1ccccc1OCCN1CCN(CCO)CC1 : -7.226%
- COCCC(C)CN (stereo not given) : -3.703%
- CCC(C)N(CCOC)Cc1cc(=O)n(C)c(=O)n1C (stereo not given) : 8.889%
- CC(C)C(NC(=O)CCn1cccn1)c1cccnc1 (stereo not given) : 0.1159%
- Cc1nc(-c2ccccn2)[nH]c(=O)c1CC(N)=O : 0.3765%
- CCNS(=O)(=O)c1ccc(CC(N)=O)cc1 : 7.007%
- CCOc1ccccc1C(=O)NC1CCN(C)CC1 : 22.98%
- CCNC(=O)N1CCC(Nc2cccnc2)C1 (stereo not given) : 13.77%
- CCc1nnc2n1CC(NC(=O)Cc1ccsc1)CC2 (stereo not given) : 3.249%
- CN1CN(C(=O)c2ccc(Br)cc2Cl)CC1=O : 11.48%
- CC(C)N1CCN(C(=O)c2n[nH]c3c2CCCC3)CC1 : 23.5%
- N[C@@H]1CN(c2ncccn2)C[C@H]1CO : -8.116%
- Cc1noc(C)c1N(C)C(=O)c1ccc(Cl)cn1 : -17.37%
- CN(C)c1cc(Cn2cnc3sccc3c2=O)ccn1 : 52.7%
- COc1c(C(=O)N2CCN(C)CC2)sc2ccccc12 : 45.1%
- Cc1csc(NC(=O)NC(CO)CC(C)C)n1 (stereo not given) : 66.92%
- CCn1c(CCNC(=O)CCCO)nc2ccccc21 : 10.82%
- CCN1CCC(CNCc2ccco2)C1 (stereo not given) : 18.47%
- CO[C@@H]1CCOC[C@H]1NC(=O)c1ccccc1C#N : 21.92%
- CN1CCN(C(=O)C2CC23CCNCC3)CC1 (stereo not given) : -1.119%
- CC(C)CC(C)(N)CO (stereo not given) : -0.3396%
- CN(C(=O)c1ccc(S(C)(=O)=O)cc1)c1ccccc1 : -4.329%
- NC(=O)c1cc(NC(=O)N2CCCC2)ccc1Cl : 9.345%
- CO[C@H]1CNCC1NC(=O)CCc1ccsc1 (stereo not given in full) : 0.9563%
- COCc1nnc(-c2ccc3c(c2)OCO3)o1 : -10.31%
- NC(=O)CCC(=O)Nc1ccc(F)cc1 : -6.683%

For reference, 4 entries once more:

{"compound": "COC(=O)c1ccc2c(c1)CCCCC2=O", "percent effect": -11.42}
{"compound": "CC(C(=O)N1CCCCCC1)N1CCNCC1", "stereo": "stereo not given", "percent effect": -3.111}
{"compound": "COc1ccccc1OCCN1CCN(CCO)CC1", "percent effect": -7.226}
{"compound": "CCNC(=O)N1CCC(Nc2cccnc2)C1", "stereo": "stereo not given", "percent effect": 13.77}